Experimental data taken from PubChem BioAssay AID485349 (National Center for Advancing Translational Sciences (NCATS), 2010).
Out of some 320,000 compounds screened, about 620 (0.19%) were called active. The inconclusive results got no clear call from the source; some entries with a clear call stand among them for comparison. Calls follow the shape of the dose curve; as a rule, active = well fitted activation curve with a large enough effect; inconclusive = small, poorly fitted or top-dose-only effect; inactive = no such curve, though single readings can be large or run the other way. Where the call is inconclusive, the potency comes from a doubtful curve fit.

Assay: qHTS Assay for Identifying a Potential Treatment of Ataxia-Telangiectasia; also: nearly all actives have a fitted effect of over 45% in size
Details: […] A-T fibroblasts, KAP-1 phosphorylation AlphaLISA, neocarzinostatin DNA damage 30 min before lysis; series mostly up to 57.5 µM
Method in brief: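 hTERT-immortalized A-T patient fibroblasts ([…]), 500 cells/well in OPTI-MEM, 1% FBS, got compounds for 60 min, then NCS for 30 min at 37C. Lysates were then assayed for phospho-KAP-1 by AlphaLISA (anti-pKAP1 donor, anti-KAP1 acceptor beads), 6 hr at 25C.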
Potency is read from the fitted curve at half-maximal effect.

SMILES | Potency
CCCCCCSc1cccc(-c2nc3ccc(C)cn3c2NCc2ccccc2)c1 | inconclusive: 22.4 µM [activator, partial curve]
Cc1cccc(NC(=O)CC(C)S(=O)(=O)c2ccc3c(c2)NC(=O)CO3)c1C (configuration not stated) | inconclusive: 14.1 µM [activator, partial curve]
CN(C)c1ccc(/C=C/C(=O)c2cccc(Br)c2)cc1 | inconclusive: 31.6 µM [activator, single point]
CCN(CC)CCn1c(=N)n(CC(=O)c2ccc(C)cc2)c2ccccc21 | inconclusive: 28.2 µM [activator, partial curve]
Cc1nc2nc(C)c(NS(=O)(=O)c3ccc4c(c3)CCCC4)c(=O)n2[nH]1 | inconclusive: 4.47 µM [activator, single point]
COc1cc(-c2nc(-c3ccccc3)c(-c3ccc(F)cc3)[nH]2)cc2c1OCO2 | inactive
CC(C)CN(CC(C)C)CC(O)COc1ccccc1Br (configuration not stated) | active: 20 µM
Cc1ccc(S(=O)(=O)NCC(=O)NCC(=O)N2CCN(c3ncccn3)CC2)cc1C | inconclusive: 0.631 µM [activator, full curve, poor fit]
COc1ccc(-c2sc3cc4c(cc3c2C#Cc2ccc(N)cc2)OCO4)cc1 | inconclusive: 7.08 µM [activator, partial curve]
CCC(=O)N(C1=C(NC(C)C)C(=O)c2ccccc2C1=O)C(C)C | inconclusive: 20 µM [activator, single point]
OC(COc1ccc(F)cc1Cl)CN1CCC(Cc2ccccc2)CC1 (configuration not stated) | active: 3.55 µM
Cc1ccc(S(=O)(=O)N(C)c2ccccc2)cc1 | inactive
CC(C)(C)c1ccc(OC(=O)Nc2ccc(O)c(C(=O)O)c2)cc1 | inconclusive: 3.16 µM [activator, partial curve]
Cc1noc(/C=C/N(C)C)c1S(=O)(=O)N1CCN(c2ccc(F)cc2)CC1 | inconclusive: 39.8 µM [activator, single point]
Cc1cccc(C)c1NC(=S)NC(C)(C)CO | inconclusive: 1.26 µM [activator, full curve, poor fit]
CN(C)CCN(C)Cc1ccc2c(c1)Cc1ccccc1-2 | inconclusive: 3.55 µM [activator, partial curve, poor fit]
CC(C)C(=O)N1CCN(CCN=CC2=C(O)CC(c3ccco3)CC2=O)CC1 (configuration not stated) | inconclusive: 3.16 µM [activator, partial curve]
O=C(O)c1ccccc1-c1ccccc1C(=O)Nc1ccc2c(c1)CCC2 | inconclusive: 39.8 µM [activator, single point]
Cc1nn(-c2ncc(C(F)(F)F)cc2Cl)c(=O)n1-c1ccccc1F | inconclusive: 3.55 µM [activator, single point]
c1cncc(-c2noc(C34CC5CC(CC(C5)C3)C4)n2)c1 | inactive
COc1ccc(S(=O)(=O)N2CCOCC2)cc1NC(=O)c1cccc(Cl)c1 | inconclusive: 39.8 µM [activator, partial curve]
O=C1/C(=C/c2cccnc2)CCC/C1=C\c1cccnc1 | inconclusive: 31.6 µM [activator, single point]
CCCn1nc(NC(=O)c2ccco2)c2cc3cc(C)ccc3nc21 | active: 22.4 µM

Arranged by molar mass (rising): some entries from above
SMILES | Potency
Cc1ccc(S(=O)(=O)N(C)c2ccccc2)cc1 | inactive
CC(C)(C)c1ccc(OC(=O)Nc2ccc(O)c(C(=O)O)c2)cc1 | inconclusive: 3.16 µM [activator, partial curve]
Cc1nc2nc(C)c(NS(=O)(=O)c3ccc4c(c3)CCCC4)c(=O)n2[nH]1 | inconclusive: 4.47 µM [activator, single point]
COc1cc(-c2nc(-c3ccccc3)c(-c3ccc(F)cc3)[nH]2)cc2c1OCO2 | inactive
Cc1noc(/C=C/N(C)C)c1S(=O)(=O)N1CCN(c2ccc(F)cc2)CC1 | inconclusive: 39.8 µM [activator, single point]
Cc1ccc(S(=O)(=O)NCC(=O)NCC(=O)N2CCN(c3ncccn3)CC2)cc1C | inconclusive: 0.631 µM [activator, full curve, poor fit]

Next structures:

SMILES | Potency
O=C(NCc1cccs1)c1cnc2ccccn2c1=O | inactive
N#Cc1ccc(Cl)cc1NC(=O)CNCc1cccs1 | inconclusive: 10 µM [activator, partial curve, poor fit]
CC1(C)CC(=O)C=C(c2cccc3c2Oc2ccccc2S3)C1 | inconclusive: 39.8 µM [activator, single point]
CSc1ccc(C(=O)c2[nH]c(=O)[nH]c2C)cc1 | inconclusive: 39.8 µM [activator, single point]
N#Cc1nc(-c2cccc3ccccc23)oc1NCC1CCCO1 (configuration not stated) | inconclusive: 39.8 µM [activator, single point]
COc1cc(/C=C/c2ccc3cccc(O)c3n2)cc(Br)c1OC | inconclusive: 3.98 µM [activator, partial curve]
CCc1cc2cc3c(cc2nc1SCC(=O)OC(C)C)OCO3 | inconclusive: 20 µM [activator, partial curve]
Cc1oc(-c2ccc(Cl)cc2)nc1CS(=O)CC(=O)NCCN1CCCCCC1 (configuration not stated) | inconclusive: 39.8 µM [activator, single point]
CCCCn1nnnc1SCC(=O)c1ccc(C)c(C)c1 | inconclusive: 39.8 µM [activator, single point]
Cc1cc(C2C(C#N)=C(N)Oc3n[nH]c(C)c32)c(C)s1 (configuration not stated) | inconclusive: 3.55 µM [activator, full curve, poor fit]
COc1cccc(/C=N\NC(=O)c2cc(OCC(F)(F)F)ccc2OCC(F)(F)F)c1 | inconclusive: 39.8 µM [activator, partial curve, poor fit]
O=C(c1ccccc1)c1cc(Cl)ccc1N1C(=O)C=CC1=O | inconclusive: 8.91 µM [activator, single point]
CC(=O)/C=C/c1ccccc1Oc1c(F)c(F)nc(F)c1F | active: 31.6 µM
Cc1cccc(CN2CCCC(C(=O)Nc3ccccc3Oc3cccnc3)C2)c1 (configuration not stated) | inactive
COc1ccc(C2=NN(c3ccccc3)C(c3ccc(OC)c(OC)c3)C2)cc1 (configuration not stated) | inconclusive: 25.1 µM [activator, partial curve]
CC(C)(C)n1nc2c(c1NC(=O)C1CC(=O)N(c3ccc(Cl)cc3)C1)CS(=O)(=O)C2 (configuration not stated) | inconclusive: 0.708 µM [activator, full curve]
CCOc1ccc(Nc2nc(NCC3CCCO3)c3ccccc3n2)cc1 (configuration not stated) | inactive
C=C(C)COc1ccc2c3c(c(=O)oc2c1OCC(=C)C)CCC3 | inconclusive: 39.8 µM [activator, single point]
O=C(Oc1ccc(F)cc1)c1cccnc1 | inconclusive: 3.98 µM [activator, single point]
Cc1nonc1NC(=O)CSc1nc(C2CCCCC2)nc2ccccc12 | inconclusive: 5.01 µM [activator, single point]
Cc1ccc(S(=O)(=O)N2CCN(C(=O)CSc3nncs3)CC2)cc1 | inconclusive: 0.708 µM [activator, full curve, poor fit]
N#Cc1c(-c2ccccc2)nc(N2CCN(Cc3ccccc3)CC2)[nH]c1=O | inconclusive: 7.08 µM [activator, full curve, poor fit]
COc1ccc(-c2oc3ccc(-c4ccc(OC)nc4)cc3c2C#CC2(O)CCCCC2)cc1 | inconclusive: 31.6 µM [activator, partial curve]

SMILES | Potency
Cc1cccc(C)c1NC(=O)COC(=O)c1cc(=O)c2ccccc2o1 | active: 3.55 µM
CCC1(C(=O)OC)CCc2c(cc(OC)c3ccccc23)C1=O (configuration not stated) | inconclusive: 22.4 µM [activator, partial curve]
C[C@H](CO)N1C[C@H](C)[C@@H](CN(C)CC2CCCCC2)Oc2c(NC(=O)Cc3ccccc3)cccc2C1=O | inconclusive: 39.8 µM [activator, single point]
CCC(=O)Nc1cccc(C2=NN(c3ccccc3)C(c3ccc(OC)cc3)C2)c1 (configuration not stated) | active: 22.4 µM
CCc1nc(C)cc2c1sc1ccccc12 | active: 20 µM
CCCCC(=O)NC(c1ccco1)c1c(O)ccc2ccccc12 (configuration not stated) | inconclusive: 1 µM [activator, partial curve]
COc1cc(-c2nc3cc(C)ccn3c2NC2CCCCC2)ccc1-c1ccc(C(C)=O)cc1 | inconclusive: 22.4 µM [activator, partial curve]
CCCN1CCC(=O)N([C@H](CSc2ccc(C)cc2)Cc2ccccc2)CC1 | inconclusive: 39.8 µM [activator, partial curve, poor fit]
CCCCc1nc(NCCNC(=O)c2ccco2)c(C#N)c2c1CSC(C)(C)C2 | inactive
O=C(CCl)N(Cc1cccc([N+](=O)[O-])c1)c1cccc(Cl)c1 | inconclusive: 39.8 µM [activator, single point]
CCCCNc1ccc2c3c(cccc13)C(=O)N(CCCC)C2=O | active: 28.2 µM
Cc1cc(SCC(=O)c2cccs2)n2nc(C)c(-c3ccc(Cl)cc3)c2n1 | inactive
CC(C)Nc1nc(Oc2ccc(=O)n(-c3ccccc3)n2)nc(N(C)C)n1 | inconclusive: 0.708 µM [activator, full curve, poor fit]
COc1ccc(C(=O)NNC(=O)C(=O)Nc2ccc(C)c(Cl)c2)cc1 | inconclusive: 44.7 µM [activator, partial curve, poor fit]
Cc1noc(/C=C/N(C)C)c1S(=O)(=O)N1CCN(c2ccccc2)CC1 | inconclusive: 39.8 µM [activator, single point]
O=C(N/N=C/c1ccco1)c1csc2c1CCCC2 | inconclusive: 39.8 µM [activator, partial curve, poor fit]
CCN1CCN(Cc2ccc(NC(=O)c3ccc(C)c(NC(=O)c4csc(-c5ccncc5)n4)c3)cc2C(F)(F)F)CC1 | active: 39.8 µM
COc1cc(OC)nc(Oc2ccccc2C(=O)Oc2ccc(Cl)cc2)n1 | inconclusive: 39.8 µM [activator, single point]
CCOC(=O)c1cnc2ccccc2c1Nc1cccc(C(=O)O)c1 | inactive
Nc1nc2ccccc2cc1-c1cccs1 | inconclusive: 4.47 µM [activator, full curve]
c1ccc(CN2CCN(C(c3ccccc3)c3ccccc3)CC2)cc1 | inconclusive: 25.1 µM [activator, single point]
